Reference: PubChem BioAssay AID504786 (Drosophila RNAi Screening Center, 2011)

Assay: 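Positive regulators of HIF-driven reporter output in Drosophila cells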 (primary screen)
System: Drosophila S2 cells with a stable HIF luciferase reporter
Reagents: long dsRNA against Drosophila genes, about 0.2 µg dsRNA per well of a 384-well plate
Time to read-out: three days of knock-down, then 20 h of DFO before reading
Conditions: desferrioxamine (DFO) at 100 µM, an iron chelator that mimics hypoxia, for 20 h
Read-out: 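Firefly luciferase driven by the mouse ldh-a hypoxia-response element, measured after 20 h of 100 µM DFO; z-scores per plate, higher means more signal lost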
Direction: z-score: higher = stronger loss of HIF reporter signal
The deposit covers about 21,000 reagents; below is an unselected part of those with a known target gene and a result. 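Primary screen; positive scores mean lost reporter signal, so the sign may be inverted from the usual convention.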 A plus sign joins genes that one reagent is predicted to hit. Further read-outs or replicates are left out here.

Depletion of Atf-2 [DRSC04130] gave: z-score, replicate 1 = 0.
Silencing of Atf-2 [DRSC04413] came out at: z-score, replicate 1 = 0.1.
After knock-down of sun [DRSC20140], the record shows z-score, replicate 1 = 0.5.
Against CG4793 [DRSC01966], the values are z-score, replicate 1 = -0.2.
Against CG1850 [DRSC06762], the values are z-score, replicate 1 = -0.2.
After knock-down of scrib [DRSC13774] the results were z-score, replicate 1 = 0.8.
After knock-down of scrib [DRSC15809], the record shows z-score, replicate 1 = -0.3.
For scrib [DRSC17051] the deposit lists z-score, replicate 1 = 0.3.
CG10467 [DRSC09728] gave z-score, replicate 1 = -0.4.
With knock-down of MYPT-75D [DRSC10743] the results were z-score, replicate 1 = -0.4.
Depletion of CG13082 [DRSC02186] came out at: z-score, replicate 1 = -0.4.
With knock-down of CG10950 [DRSC06020], the screen gave z-score, replicate 1 = -0.3.
CG31031 (retired record) [DRSC13964] gave z-score, replicate 1 = 0.1.
Depletion of spartin [DRSC12187] came out at: z-score, replicate 1 = -0.3.
Against Gyc88E [DRSC15547], the values are z-score, replicate 1 = -0.2.
Knock-down of Mnat9 [DRSC14325] resulted in: z-score, replicate 1 = -0.3.
Silencing of Nadk1b [DRSC05432] resulted in: z-score, replicate 1 = -0.2.
Nadk1b [DRSC06964] showed z-score, replicate 1 = -0.4.
Nadk1b [DRSC06965] showed z-score, replicate 1 = -0.4.
With knock-down of Tbcc [DRSC00223], the screen gave z-score, replicate 1 = 0.4.
For Hers + amn [DRSC20306] the deposit lists z-score, replicate 1 = 0.
Knock-down of scw [DRSC01711] resulted in: z-score, replicate 1 = -0.1.
Against scw [DRSC21252] the deposit lists z-score, replicate 1 = -0.2.
Knock-down of CG13126 [DRSC02222] came out at: z-score, replicate 1 = 0.
Knock-down of CG7888 [DRSC10926] resulted in: z-score, replicate 1 = -0.2.
Against lectin-24A [DRSC00604], the values are z-score, replicate 1 = -0.3.
Knock-down of ng3 [DRSC18804] came out at: z-score, replicate 1 = -0.2.
Silencing of Trmt6 [DRSC03272] resulted in: z-score, replicate 1 = -0.4.
After knock-down of CG30103 [DRSC06894], the screen gave z-score, replicate 1 = -0.3.
Knock-down of aspr [DRSC20689] came out at: z-score, replicate 1 = -0.5.
Silencing of aspr [DRSC20690] gave: z-score, replicate 1 = -0.2.
Depletion of levy [DRSC04289] came out at: z-score, replicate 1 = 0.3.
With knock-down of Rbcn-3B [DRSC18574], the record shows z-score, replicate 1 = 0.1.
fsd [DRSC06166] scored z-score, replicate 1 = -0.4.
ppk6 [DRSC06062] showed z-score, replicate 1 = -0.1.
Against nAChRalpha4 [DRSC11925], the entry reads z-score, replicate 1 = 0.
CG32266 [DRSC08062] showed z-score, replicate 1 = -0.4.
Against Vps13B [DRSC15060] the deposit lists z-score, replicate 1 = -0.2.
With knock-down of CG4287 [DRSC15559], the record shows z-score, replicate 1 = 0.
With knock-down of CG15721 [DRSC19688], the record shows z-score, replicate 1 = -0.3.
png [DRSC18582] gave z-score, replicate 1 = -0.3.
Depletion of CG8677 + CG31626 [DRSC01838] resulted in: z-score, replicate 1 = 0.1.
Silencing of CG32727 [DRSC17519] resulted in: z-score, replicate 1 = -0.2.
Silencing of tna [DRSC09053] resulted in: z-score, replicate 1 = -0.3.
With knock-down of tna [DRSC10937] the results were z-score, replicate 1 = 0.5.
After knock-down of CG31740 [DRSC01619] the results were z-score, replicate 1 = -0.6.
Against Mrtf [DRSC08263], the values are z-score, replicate 1 = 4.1.
For Mrtf [DRSC08410], the entry reads z-score, replicate 1 = 1.9.
Mrtf [DRSC08411] scored z-score, replicate 1 = 0.
With knock-down of Jhbp16 [DRSC15039] the results were z-score, replicate 1 = 0.6.
After knock-down of tbrd-1 [DRSC14601] the results were z-score, replicate 1 = -0.2.

7 entries from above, sorted by “z-score, replicate 1”, low to high.
CG10467 [DRSC09728] | z-score, replicate 1 = -0.4
MYPT-75D [DRSC10743] | z-score, replicate 1 = -0.4
CG13082 [DRSC02186] | z-score, replicate 1 = -0.4
scrib [DRSC15809] | z-score, replicate 1 = -0.3
CG1850 [DRSC06762] | z-score, replicate 1 = -0.2
scrib [DRSC17051] | z-score, replicate 1 = 0.3
scrib [DRSC13774] | z-score, replicate 1 = 0.8
